Measured values as given in patent publication US20180273636A1.
These are yes or no findings as the source states them, for the method shown. Some results given as binding are weak or reduced against the parent protein; the word gives no strength.

Assays:
[1] = target: Her2 (from Acrobiosystems) (UniProt P04626); assay: SPR, immobilised Her2 with and without Trastuzumab (competitor)
[2] = target: Her2 (from Acrobiosystems) (UniProt P04626); assay: SPR competition analysis on immobilised Her2
[3] = target: Her2 (from Acrobiosystems) (UniProt P04626); assay: SPR on immobilised Her2 pre-loaded with Trastuzumab (competitor)

binding [1]: binds | binding [2]: binds | binding [3]: binds
B1: Affilin-143692 (designed binder)
chain: MQIFVKTLTAGNPSHMHHGKTITLEVEPSDTIENVKAKIQDKEGIPPDQQRLIWAGKQLEDGRTLSDYNIDDMHWLILLLNLRAA
